# From PubChem BioAssay AID590 (National Center for Advancing Translational Sciences (NCATS), 2007)
# Hit rate of the full screen: of about 59,000 compounds, about 6,500 (11%) were called active. Inconclusive results, whose numbers are uncertain, are shown with a selection of clear calls. Rule as the data show it: active = max dye-equivalent concentration above about 10 nM; inconclusive = mostly about 1.1 nM to 9.6 nM; inactive = weaker than that.
# Test: qHTS Assay for Spectroscopic Profiling in A350 Spectral Region
# Conditions: Compound autofluorescence, 340/450 nm, Alexa 350 dye-equivalents; hits give high values
row,Structure (SMILES),max dye-equivalent concentration
1,CCN(CC)CCCN1C(=O)C(=O)/C(=C(/O)c2ccccc2)C1c1cc(OC)ccc1OC (stereo unspecified),inconclusive: 1.3 nM
2,CC(=O)c1cc2c(O)c(O)ccc2o1,active: 25 nM
3,COC(=O)c1c(NC(=O)c2ccc(S(=O)(=O)N3CCOCC3)cc2)sc2c1CCN(C)C2,inconclusive: 8 nM
4,O=C(NC1CCCCC1)c1ccc(Cn2cc(Br)cn2)o1,inconclusive: 1.1 nM
5,Cc1nc(SCC(=O)NCc2ccco2)c2oc3ccccc3c2n1,inactive
6,CCOC(=O)C1=C(C)NC(=O)C(C#N)C1c1ccncc1 (stereo unspecified),inconclusive: 1.1 nM
7,Cc1ccc(-c2ccc(/C=N/c3ncn[nH]3)o2)cc1Cl,active: 13 nM
8,CC(Oc1ccccc1)C(=O)Nc1ccc(S(=O)(=O)NCC2CCCO2)cc1 (stereo unspecified),inconclusive: 3.7 nM
9,Cc1ccccc1Cn1ccc(NC(=O)c2cc3nc(-c4ccco4)cc(C(F)(F)F)n3n2)n1,active: 170 nM
10,O=C(CSc1n[nH]c(-c2ccc(S(=O)(=O)NC3CCCCC3)cc2)n1)N1CCCC1,inconclusive: 1.7 nM
11,COc1cc(C(=O)N2CCC(NC(=O)C(Cc3ccc(C)cc3)NC(C)=O)CC2)cc(OC)c1OC (stereo unspecified),inconclusive: 1.3 nM
12,COc1cccc(C2Nc3ccccc3C(=O)N2O)c1O (stereo unspecified),inconclusive: 2.1 nM
13,CC(C)(C)n1nnnc1C(c1cccnc1)N1CCN(C2CCCCC2)CC1 (stereo unspecified),inconclusive: 1.3 nM
14,Nc1[nH]c(=S)[nH]c(=O)c1N=Nc1c(Br)cc(S(N)(=O)=O)cc1Br,inactive
15,CCS(=O)(=O)N1CCCC(C(=O)NCCN(C)Cc2ccccc2)C1 (stereo unspecified),inactive
16,CC(C)(C)OC(=O)N1CCC(c2c(C(=O)O)cnn2-c2ccc(Cl)cc2)CC1,inconclusive: 2.8 nM
17,CC(=O)Nc1ccc(SCC(=O)c2cc(C)n(Cc3cccs3)c2C)cc1,inactive
18,O=S(=O)(c1ccc2nc(-c3ccco3)c(-c3ccco3)nc2c1)N1CCOCC1,inconclusive: 5.8 nM
19,Cn1c(=O)c2c(nc(CN3CCOCC3)n2CCCO)n(C)c1=O,inactive
20,COc1ccc(-c2nc3cnc(Oc4cccc(Cl)c4)nc3n(CCC#N)c2=O)cc1,active: 11 nM
21,Cc1ccc2cc(CN(Cc3cccs3)C(=O)c3ccco3)c3nnnn3c2c1C,inactive
22,O=C(c1ccc(C23CC4CC(CC(C4)C2)C3)o1)N1CCOCC1,inconclusive: 1.1 nM
23,Brc1ccc(-c2nc(-c3cccnc3)no2)o1,inconclusive: 1.6 nM

# 2 neighbouring entries out of the list so far:
row,Structure (SMILES),max dye-equivalent concentration
16,CC(C)(C)OC(=O)N1CCC(c2c(C(=O)O)cnn2-c2ccc(Cl)cc2)CC1,inconclusive: 2.8 nM
17,CC(=O)Nc1ccc(SCC(=O)c2cc(C)n(Cc3cccs3)c2C)cc1,inactive

# (listing goes on)

row,Structure (SMILES),max dye-equivalent concentration
1,O=c1c(-c2ccc(F)cc2)nc2cnc(N3CCOCC3)nc2n1Cc1cccs1,inconclusive: 4 nM
2,COc1ccc(OCC(O)COc2ccc(OC)cc2)cc1,inconclusive: 1.1 nM
3,COc1cc2c(cc1OC)C(c1ccncc1)CC(=O)N2 (stereo unspecified),inactive
4,O=c1c(-c2cccc(Cl)c2)nc2cncnc2n1C1CC1,inactive
5,COc1cc(S(=O)(=O)NCCc2ccc3c(c2)OCO3)ccc1-n1cnnn1,inactive
6,CN(C)S(=O)(=O)c1ccc(S(=O)(=O)N(Cc2ccccn2)Cc2ccco2)cc1,inconclusive: 1.3 nM
7,O=C1CSC(c2cccs2)N1c1ccccc1 (stereo unspecified),active: 11 nM
8,CC1CCCc2sc3nc(NCc4ccco4)n4ncnc4c3c21 (stereo unspecified),active: 19 nM
9,CC(C)c1nc(NCC2CCCO2)c(C#N)c2c1COC(C)(C)C2 (stereo unspecified),active: 100 nM
10,CC(=O)[C@H]1[C@H]2[C@H](C(=O)[C@@H]3OC[C@H]2O3)[C@@H]2c3ccccc3C=CN12,inconclusive: 5.5 nM
11,CNCCC(Oc1ccc(C(F)(F)F)cc1)c1ccccc1 (stereo unspecified),inconclusive: 3.8 nM
12,COc1ccc(C)cc1NC(=O)CSc1nnc(COc2ccccc2)n1Cc1ccco1,active: 71 nM
13,Cc1ccccc1CN1CCNC1=O,inconclusive: 4.2 nM
14,COc1cccc(-c2ccc3ncnc(NCc4cnc(C)cn4)c3c2)c1,inactive
15,Cc1cc(C(=O)NC2=NCCS2)cs1,inconclusive: 3.2 nM
16,CC1(C)CC(CCNC(=O)c2ccco2)CC(C)(C)N1,inactive
17,COc1ccc2nc(SCC(=O)NC(C)C)[nH]c2c1,inactive
18,Cc1ccccc1-c1cc(NCc2ccccc2)ncn1,inactive
19,CCOCC(=O)Nc1c(C(=O)Nc2ccc(OC)cc2OC)oc2ccccc12,active: 310 nM
20,CC(=O)NCCNc1nc(-c2ccccc2C(F)(F)F)nc2ccccc12,inactive
21,Cc1cc2ccccc2c(=O)n1CC(=O)NCC(=O)N(C)Cc1ccccc1,inconclusive: 1.4 nM
22,CCOC(=O)CSc1nc(C2CC2)nc2ccccc12,inactive
23,CN(Cc1c(F)cccc1Cl)c1nnnn1-c1ccccc1,inactive
